Data from article PMC8316566.

Sequences of proteins named here, by UniProt entry; tags and fusion partners are left off.
UniProt A4D1E9: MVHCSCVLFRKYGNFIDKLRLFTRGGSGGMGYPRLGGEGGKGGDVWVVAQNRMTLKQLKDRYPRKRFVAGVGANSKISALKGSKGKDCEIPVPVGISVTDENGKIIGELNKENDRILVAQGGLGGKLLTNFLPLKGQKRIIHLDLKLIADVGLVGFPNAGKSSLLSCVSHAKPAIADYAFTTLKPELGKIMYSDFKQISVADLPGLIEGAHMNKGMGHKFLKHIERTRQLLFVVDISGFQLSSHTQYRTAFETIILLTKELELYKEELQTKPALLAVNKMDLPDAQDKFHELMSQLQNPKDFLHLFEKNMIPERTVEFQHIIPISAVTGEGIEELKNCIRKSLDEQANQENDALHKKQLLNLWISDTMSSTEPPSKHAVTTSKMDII

Molecular target: GTPBP10 with C-terminal Strep-Flag tag (human) (UniProt A4D1E9)
Assay: affinity purification with mass spectrometry; Flag-tagged MALSU1 or GTPBP10 as bait, cleared HEK293 lysate on anti-Flag beads 2 h, wash 20 mM HEPES pH 7.4, 150 mM KOAc, 5 mM Mg(OAc)2, 1 mM DTT, elution with 3xFlag peptide; eluate analysed by mass spectrometry

B1: MTG2 (protein, UniProt Q9H4K7 1-406)
chain: MAPARCFSARLRTVFQGVGHWALSTWAGLKPSRLLPQRASPRLLSVGRADLAKHQELPGKKLLSEKKLKRYFVDYRRVLVCGGNGGAGASCFHSEPRKEFGGPDGGDGGNGGHVILRVDQQVKSLSSVLSRYQGFSGEDGGSKNCFGRSGAVLYIRVPVGTLVKEGGRVVADLSCVGDEYIAALGGAGGKGNRFFLANNNRAPVTCTPGQPGQQRVLHLELKTVAHAGMVGFPNAGKSSLLRAISNARPAVASYPFTTLKPHVGIVHYEGHLQIAVADIPGIIRGAHQNRGLGSAFLRHIERCRFLLFVVDLSQPEPWTQVDDLKYELEMYEKGLSARPHAIVANKIDLPEAQANLSQLRDHLGQEVIVLSALTGENLEQLLLHLKVLYDAYAEAELGQGRQPLRW
binding: no binding

No constants are given. Whether binding was seen depends on the method and setting. Binding seen in cells or lysates may run through a third protein. A yes stands for co-enrichment or nearness to the bait. Other partners may have been found. No binding means not detected with the bait.
